Patent US12582697B2, “Antisecretory factor for use in treatment and/or prevention of acute respiratory failure” (LANTMÄNNEN MEDICAL AB, priority 2018, dated 2026)
“Also recorded” adds a separate entry of the source. Part of at least one peptide drawing is inferred or uncertain, most often the ends. Where a SMILES comes first, the peptide text is derived from it.

Key:
Type in all cases: in vivo, pig
[1] = tested on: adult pigs with experimentally induced ARDS; assay: ARDS model (respiratory tract lavage and injurious ventilation): extra-vascular lung water by PiCCO
[2] = tested on: adult pigs with experimentally induced ARDS; assay: ARDS model: cardiac output (PiCCO); details: 2 mg/kg infused 1 h after ALI, 6 pigs
[3] = tested on: adult pigs with experimentally induced ARDS; assay: ARDS model: appearance of the lungs at autopsy; details: 5 hours after injury, 4 hours after single infusion of 2 mg/kg bw, vs vehicle

CC(C)C[C@H](NC(=O)CNC(=O)[C@@H](NC(=O)[C@H](CC(N)=O)NC(=O)[C@H](CC(N)=O)NC(=O)[C@H](CCC(=O)O)NC(=O)[C@@H]1CCCN1C(=O)[C@H](CC(N)=O)NC(=O)[C@H](CO)NC(=O)[C@H](CCCNC(=N)N)NC(=O)[C@@H](NC(=O)[C@H](CCCCN)NC(=O)[C@H](CO)NC(=O)[C@H](Cc1c[nH]cn1)NC(=O)[C@H](CS)NC(=O)[C@@H](N)C(C)C)[C@@H](C)O)C(C)C)C(=O)O [AF-16, VCHSKTRSNPENNVGL] (H-VCHSKTRSNPENNVGL-OH; N-terminus and C-terminus assumed)
EVLW (extra-vascular lung water), mean ([1]; 1 hour after iv infusion of 2 mg/kg body weight, 6 pigs, vehicle 510 mL, statistically significant): 460 mL
EVLW (extra-vascular lung water), mean ([1]; 2 hours after iv infusion of 2 mg/kg, 6 pigs, vehicle 505 mL, significant): 430 mL
EVLW (extra-vascular lung water), mean ([1]; 3 hours after iv infusion of 2 mg/kg, 6 pigs, vehicle 500 mL, significant): 420 mL
EVLW (extra-vascular lung water), mean ([1]; 4 hours after iv infusion of 2 mg/kg, 6 pigs, vehicle 480 ml, significant): 400 mL
onset of the beneficial effects ([1]; after intravenous infusion): within an hour
duration of the beneficial effects ([1]; after single intravenous infusion): at least three to four hours
EVLW after treatment (FIG. 3) ([1]; from about 500 mL, in 4 h after 2 mg/kg bw infusion, 6 pigs, p<0.001): ~400 mL
difference (reduction) of EVLW ([1]; in 4 h after 2 mg/kg bw infusion): 100 mL
reduction of EVLW ([1]; in 4 h after 2 mg/kg bw infusion, from about 500 mL): roughly 20%
accumulation of fluid in alveoli and interstitial tissue (in words) ([1]; intravenous infusion, vs vehicle): significantly reduced the deleterious accumulation of fluid
duration of beneficial effect on CO [2]: at least 4 h
cardiac output (CO) (in words) ([2]; baseline 4.2 L/min/m^2, vehicle decrease roughly 25%, p<0.05 vs vehicle): remained almost at the same level as the initial baseline values; also recorded: kept the CO at a close to normal level; also recorded: beneficial effects, which are statistically significant
appearance of lungs / structural abnormalities (in words) [3]: close to normal appearance with minimal bleedings; also recorded: appear close to normal with minor scattered hemorrhages; also recorded: reduced the structural abnormalities
